Experimental data taken from PMC6593404.
Results are given in words; binding and its absence hold for the method and conditions named. Binding seen in cells or lysates may run through a third protein. Some results given as binding are weak or reduced against the parent protein; the word gives no strength. Sequences can lack the tags named with a protein.

Key:
[1] = target: T1, MSMEG_0736 (TtfA)-msfGFP, full length (Mycobacterium smegmatis) (UniProt A0QQF4); assay: condition: only Triton X-100-solubilized lysates of cells depleted of MSMEG_5308; co-IP; GFP-Trap magnetic agarose pulldown from Triton X-100-solubilized lysates of cells depleted of MSMEG_5308 by CRISPRi (24 h ATc), washes with 0.1% Triton X-100; blots with anti-RFP and anti-GFP
T1 sequence: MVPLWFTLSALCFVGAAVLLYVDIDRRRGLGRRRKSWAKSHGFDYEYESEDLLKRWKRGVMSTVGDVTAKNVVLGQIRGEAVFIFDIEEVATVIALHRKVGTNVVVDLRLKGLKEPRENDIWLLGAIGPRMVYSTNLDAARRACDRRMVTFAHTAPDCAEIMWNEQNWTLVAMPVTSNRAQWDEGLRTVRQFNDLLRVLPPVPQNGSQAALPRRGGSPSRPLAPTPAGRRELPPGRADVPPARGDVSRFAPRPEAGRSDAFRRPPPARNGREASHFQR

[2] = target: T1, MSMEG_0736 (TtfA)-msfGFP, full length (Mycobacterium smegmatis); assay: co-IP; GFP-Trap magnetic agarose pulldown of msfGFP fusions from DDM-solubilized M. smegmatis lysates coexpressing MmpL3-mCherry, PBS, 4°C, washes with 0.1% DDM; blots with anti-RFP and anti-GFP; also after CRISPRi depletion of Pks13 (6 h ATc) or of MSMEG_5308 (24 h ATc)
[3] = target: T2, MsTtfA(1-205aa)-msfGFP (Mycobacterium smegmatis) (UniProt A0QQF4); assay: as above
T2 sequence: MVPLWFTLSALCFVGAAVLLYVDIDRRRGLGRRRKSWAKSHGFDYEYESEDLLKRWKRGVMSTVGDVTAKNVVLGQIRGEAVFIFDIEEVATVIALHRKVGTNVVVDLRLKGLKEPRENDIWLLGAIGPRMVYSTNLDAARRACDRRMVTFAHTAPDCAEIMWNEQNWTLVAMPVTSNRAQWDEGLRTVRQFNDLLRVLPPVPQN

[4] = target: T1, MSMEG_0736 (TtfA)-msfGFP, full length (Mycobacterium smegmatis); assay: co-IP; GFP-Trap magnetic agarose pulldown from Triton X-100-solubilized lysates, nontargeting CRISPRi control (MSMEG_5308 present), washes with 0.1% Triton X-100; blots with anti-RFP and anti-GFP

binding [1]: no binding
binding [2]: binds
binding [3]: binds
binding [4]: binds
B1: MmpL3-mCherry (protein, UniProt A0QP27 1-1013)
chain: MFAWWGRTVYQFRYIVIGVMVALCLGGGVYGISLGNHVTQSGFYDEGSQSVAASLIGDEVYGRDRTSHVVAILTPPDDKKVTDKAWQKKVTEELDQVVKDHEDQIVGWVGWLKAPDTTDPTVSAMKTQDLRHTFISIPLQGDDDDEILKNYQVVEPELQQVNGGDIRLAGLNPLASELTGTIGEDQKRAEVAAIPLVAVVLFFVFGTVIAAALPAIIGGLAIAGALGIMRLVAEFTPVHFFAQPVVTLIGLGIAIDYGLFIVSRFREEIAEGYDTEAAVRRTVMTSGRTVVFSAVIIVASSVPLLLFPQGFLKSITYAIIASVMLAAILSITVLAAALAILGPRVDALGVTTLLKIPFLANWQFSRRIIDWFAEKTQKTKTREEVERGFWGRLVNVVMKRPIAFAAPILVVMVLLIIPLGQLSLGGISEKYLPPDNAVRQSQEQFDKLFPGFRTEPLTLVMKREDGEPITDAQIADMRAKALTVSGFTDPDNDPEKMWKERPANDSGSKDPSVRVIQNGLENRNDAAKKIDELRALQPPHGIEVFVGGTPALEQDSIHSLFDKLPLMALILIVTTTVLMFLAFGSVVLPIKAALMSALTLGSTMGILTWMFVDGHGSGLMNYTPQPLMAPMIGLIIAVIWGLSTDYEVFLVSRMVEARERGMSTAEAIRIGTATTGRLITGAALILAVVAGAFVFSDLVMMKYLAFGLLIALLLDATIIRMFLVPAVMKLLGDDCWWAPRWMKRVQEKLGLGETELPDERKRPTVRESETDQRALVGVGAPPPPPRPHDPTHPAPEPVRPMPPMRSNAPSAAGTARISTPPQPPQPPQAPAQQAGDEPATTRFAMARNAVRNAVNSAVHGGAGSAAAPTERAPRPGGPAQPPAPPQREEREIESWLGALRGPAPAKNVPQPPAQPQRPSTDTTRAMPPQGRPPAGPADRGNENAPTTAFSAQRPPNGGAPADATTAIPTPPQREQEPSTEKLNTREDAPEDPETKRRGGGMSAQDLLRREGRL
